Measured values taken from PubChem BioAssay AID590 (National Center for Advancing Translational Sciences (NCATS), 2007).
About 6,500 (11%) of roughly 59,000 compounds were called active. Inconclusive means that the source gave no clear call. Such entries were picked first, then a sample of the others. No stated cut-off is given here; in the data, active means max dye-equivalent concentration above about 10 nM; inconclusive means mostly about 1.1 nM to 9.6 nM; inactive means weaker than that.

Assay: qHTS Assay for Spectroscopic Profiling in A350 Spectral Region
Conditions: Compound autofluorescence, 340/450 nm, Alexa 350 dye-equivalents; active compounds read high

SMILES	max dye-equivalent concentration
COc1c(Cl)ccc(Cl)c1C(=O)NC(=O)N1CCOCC1	inconclusive: 8 nM
O=C(CCn1nc(-c2ccccc2)ccc1=O)N1CCOCC1	inactive
NS(=O)(=O)c1cccc2c1c([N+](=O)[O-])cc1nc(O)c(O)nc12	inconclusive: 4.9 nM
O=C(c1ccncc1)N1CCC[C@@]2(CCN(c3cccc(-c4ccccc4)c3)C2)C1	inactive
CCc1cc(=O)oc2cc(C)c(CN3CCCCC3)c(O)c12	inconclusive: 1.7 nM
O=C(Nc1cnccn1)c1cccnc1	inactive
O=C(CSc1nnc(CNC(=O)c2cccs2)o1)Nc1cccc(C(F)(F)F)c1	inconclusive: 1.1 nM
CCN1CCc2c(C#N)c(NCc3ccccc3)nc(NCCO)c2C1	active: 500 nM
CC(=O)/C=C(\C)NCCNc1c(F)c(F)c(CO)c(F)c1F	inconclusive: 2.4 nM
COc1ccc(OCc2nn3c(Cn4cnc5ccccc54)nnc3s2)cc1	inconclusive: 5.2 nM
O=C(CN1C(=O)c2ccccc2S1(=O)=O)N1CCOCC1	inconclusive: 6.7 nM
Cc1ccc2[nH]c(=O)c(CN(CC3CCCO3)C(=O)c3ccco3)cc2c1 (stereo not given)	inconclusive: 2.9 nM
CCCC(=O)Nc1nn(CCC)c2nc3ccccc3cc12	active: 53 nM
CC(=O)OC1=C(C#N)Cn2ccc3cccc1c32	inactive
CCOC(=O)c1cc2c(=O)n(C)c3ccccc3c2s1	active: 19 nM
Nc1nnc(CC(=O)NCc2ccccc2)s1	inconclusive: 1.4 nM
COCCCNc1ncnc2c1cnn2-c1ccc(C)cc1C	inconclusive: 2.2 nM
O=C1/C(=N/n2cnnc2)c2ccccc2N1Cc1ccccc1	active: 75 nM
c1ccc(CSc2nnc3c4ccccc4c4ccccc4c3n2)cc1	inactive
Cc1cc(C)nc(N(C#N)S(=O)(=O)c2ccccc2)n1	inactive
CC1=C(C#N)C(=O)OC(C)(C)C1	inconclusive: 1.6 nM
Cc1c(NC(=O)CN2C(=O)c3cccc4cccc2c34)c(=O)n(-c2ccccc2)n1C	active: 17 nM
O=C(NCCc1ccccc1)c1cc2ncc(Br)cn2n1	inactive
O=C(CSc1n[nH]c(-c2ccccc2)n1)c1ccc(O)c(O)c1	inactive

SMILES	max dye-equivalent concentration
CC1CCCC(NS(=O)(=O)c2ccc3c(c2)OCCO3)C1C (stereo not given)	inconclusive: 2.7 nM
S=C1SCN(CCN2CCOCC2)CN1Cc1ccccc1	inconclusive: 6.7 nM
CCCn1c(SCC(=O)N2CCCCC2)nnc1-c1ccco1	inconclusive: 1.6 nM
Nc1cccc2c1C(=O)N(C(=O)c1ccc(S(=O)(=O)N3CCCCCC3)cc1)C2=O	active: 18 nM
COc1ccc(-c2cc(=O)n(-c3nc4ccccc4[nH]3)[nH]2)cc1	inactive
CCOC(=O)Nc1nnc(-c2ccccc2OC)s1	inconclusive: 3 nM
CC(=O)c1cc2c(cc1NC(=O)CN1CCN(c3cccc(C(F)(F)F)c3)CC1)OCO2	inconclusive: 6.2 nM
Cc1nc2[nH]c(=O)c3c(n2n1)NC1=C(C(=O)CC(C)(C)C1)C3c1ccc(F)cc1 (stereo not given)	active: 380 nM
Cc1nc2ccccc2c2c1C(=O)N(CCC1=CCCCC1)C2=O	inconclusive: 6.7 nM
O=C(NCCCn1ccnc1)c1cn(-c2ccccc2)nc1-c1ccc(F)cc1	inactive
CC1CCN(CCn2c(=S)[nH]c3ncccc3c2=O)CC1	inconclusive: 2.9 nM
O=c1c(CCc2ccccc2)nc2cncnc2n1Cc1ccccc1	inactive
O=c1[nH]c2c(s1)C(c1ccco1)C1C3CCC(C3)C1S2 (stereo not given)	inconclusive: 1.3 nM
O=C(Nc1cccnc1)c1cc(-c2ccc3c(c2)OCO3)on1	inconclusive: 7.4 nM
CCNC(=O)[C@@H]1O[C@@H](n2cnc3c(NCc4ccccc4)ncnc32)[C@@H](O)[C@H]1O	inconclusive: 2.9 nM
Cc1ncc([N+](=O)[O-])n1CC(O)CCl (stereo not given)	inconclusive: 1.7 nM
CCOc1ccc2[nH]c(=O)c(C(c3nnnn3C3CCCCC3)N3CCN(C)CC3)cc2c1 (stereo not given)	active: 630 nM
N#CC1=C2SCC(O)(c3ccccc3)N2C(=O)CC1c1ccccc1 (stereo not given)	inactive
CCN(CCO)C(=O)C12CCC(C)(C(=O)C1)C2(C)C (stereo not given)	inactive
CC(=O)CSc1ncnc2c1oc1ccccc12	inconclusive: 2.8 nM
O=C(NCc1ccc2c(c1)OCO2)c1c(O)c2cccc3c2n(c1=O)CCC3	inconclusive: 9.1 nM
CCOc1cc2[nH]c(=O)n(CC3CCC(C(=O)NC4CCCCC4)CC3)c(=O)c2cc1OCC (stereo not given)	inconclusive: 1.1 nM
Cc1cc(C)c2nc3c(c(C(=O)O)c2c1)CCC3	inconclusive: 5.6 nM
CN(Cc1c(O)ccc2c1oc(=O)c1ccccc12)C1CCCCC1	inconclusive: 2.4 nM

Ordered by formula weight (rising): some entries from above
SMILES	max dye-equivalent concentration
Cc1ncc([N+](=O)[O-])n1CC(O)CCl (stereo not given)	inconclusive: 1.7 nM
S=C1SCN(CCN2CCOCC2)CN1Cc1ccccc1	inconclusive: 6.7 nM
N#CC1=C2SCC(O)(c3ccccc3)N2C(=O)CC1c1ccccc1 (stereo not given)	inactive
Cc1nc2[nH]c(=O)c3c(n2n1)NC1=C(C(=O)CC(C)(C)C1)C3c1ccc(F)cc1 (stereo not given)	active: 380 nM
Nc1cccc2c1C(=O)N(C(=O)c1ccc(S(=O)(=O)N3CCCCCC3)cc1)C2=O	active: 18 nM

Additional compounds

SMILES	max dye-equivalent concentration
CCOC(=O)c1cccc(NS(=O)(=O)c2cnc[nH]2)c1	inactive
Cc1nc2ccccc2cc1C(=O)NCc1ccco1	inconclusive: 9.7 nM
Cc1ccc(N(C(=O)CNC(=O)c2ccco2)C(C(=O)NCC2CCCO2)c2ccccc2)cc1 (stereo not given)	inconclusive: 1.5 nM
CC1(C)CC(=O)C(C=Nc2ccc(Cl)cn2)=C(O)C1	inconclusive: 5 nM
CCOC(=O)NCc1ccc2c(c1)cc(C)n2C	inconclusive: 2.9 nM
CCCN1C(=O)C2(C(C(=O)c3ccc(C)o3)=C(O)C(=O)N2CCCN2CCOCC2)c2ccccc21 (stereo not given)	inconclusive: 1.6 nM
Cn1c(CSc2nc3ccccc3s2)nc2ccccc21	inconclusive: 5.5 nM
COc1ccccc1-c1nc(C#N)c(NCc2ccc(F)cc2)o1	active: 16 nM
CC(=O)Nc1cccc(NC(=O)CCn2c(=O)sc3ccccc32)c1	inactive
N#CCCCSc1ncccc1-c1nc2ccccc2[nH]1	inconclusive: 7.9 nM
Nc1ncnc2nc(SCCN3CCCCC3)[nH]c12	inconclusive: 4.7 nM
CC(=O)N(C(C)=O)c1ccc2nc(C)[nH]c(=O)c2c1	inconclusive: 2 nM
COc1ccc(OC)c(NC(=O)C2=C(C)Nc3ncnn3C2c2cccs2)c1 (stereo not given)	active: 160 nM
COc1ccc(CCN(C)C(=O)N2CCOCC2)cc1OC	inconclusive: 1.5 nM
CSc1nccc(Nc2ccccc2)c1C#N	inactive
COc1ccc(N2C(=O)CSC2c2ccncc2)cc1 (stereo not given)	inconclusive: 1.4 nM
COc1ncc2nc(-c3ccc(F)cc3)c(=O)n(CCc3ccccc3)c2n1	inconclusive: 4.1 nM
Cc1nn2c(-c3ccncc3)nnc2c2ccccc12	inconclusive: 8.4 nM
Cc1cc(C)c(O)c(-c2cc(C(=O)Nc3ccc(S(=O)(=O)N4CCOCC4)cc3)[nH]n2)c1	inactive
COC(=O)c1cc(OC)c(OC)cc1NC(=O)c1cccnc1	active: 93 nM
C=CCN(CC=C)c1nc2ccccc2nc1C(C#N)C(=O)OCCOC (stereo not given)	active: 360 nM
O=C(c1csnn1)N1CCC2(CCCN(c3ccccn3)C2)CC1	inactive
Cc1ccc2c(c1)N(CC(=O)NCCc1c[nH]c3ccccc13)C(=O)CO2	inactive
Nc1nc(SCC(=O)NCc2ccco2)[nH]c(=O)c1-c1ccccc1	inactive

SMILES	max dye-equivalent concentration
Cc1ccsc1/C=N/n1cnc2sc(C)c(C)c2c1=O	inconclusive: 1.2 nM
Fc1ccc(-c2nn3c(C4COc5ccccc5O4)nnc3s2)cc1 (stereo not given)	inconclusive: 2.7 nM
O=C1CN(C(=O)c2cnccn2)c2ccccc2N1	inconclusive: 4.7 nM
Cn1c(=O)c(-c2cc(F)cc(F)c2)nc2cnc(Oc3cccc(Cl)c3)nc21	inconclusive: 3.5 nM
Cn1c(C(C#N)C(=O)c2sc3ccccc3c2Cl)nc2ccccc21 (stereo not given)	active: 12 nM
COc1ccc(S(=O)(=O)N2CCN(c3ncnc4c(-c5ccccc5)nsc34)CC2)cc1	active: 120 nM
CCCCNC(=O)C1CC(=O)N(CCC(C)C)C1 (stereo not given)	inconclusive: 4.9 nM
O=C(NC1CCCCC1)c1ccc(S(=O)(=O)NCc2cccnc2)cc1	inactive
Cn1c(=O)c2[nH]cnc2n(C)c1=O	inconclusive: 6.5 nM
Cc1c(C(=O)NCC2CCCO2)oc2ccc(S(=O)(=O)N3CCCC3)cc12 (stereo not given)	inactive
Cc1ccc(C(=O)C2=C(O)C(=O)N(CCCn3ccnc3)C2c2ccc(OC(C)C)cc2)o1 (stereo not given)	active: 37 nM
COc1ccc(CCNC[C@H](O)c2ccc(O)cc2)cc1OC	inactive
COc1cccc(N2CCN(c3ncnc4c3[nH]c3ccccc34)CC2C)c1 (stereo not given)	inactive
Cc1[nH]c(=O)c(C#N)cc1-c1ccncc1	inconclusive: 1.5 nM
Cc1cc2c(SCc3ccccc3Cl)nc(N)nc2nc1C	active: 100 nM
CCOc1ncccc1C(=O)OCC(=O)c1cc(C)n(Cc2ccco2)c1C	inactive
Cc1cc(NCCOCCO)n2ncc(-c3ccc(Cl)cc3)c2n1	active: 39 nM
CC(Sc1cccc(C(F)(F)F)c1)C(=O)NC(N)=O (stereo not given)	inactive
Cc1nc(-c2ccccc2)c(Cc2ccccc2O)c(=O)[nH]1	inactive
CCCNC(=O)NC(=O)CSc1nc2ccccc2n1CC(C)C	inconclusive: 1.5 nM
COc1ccc2c(CC(=O)OCC(=O)Nc3ccc4c(c3)OCO4)coc2c1	inconclusive: 1.2 nM
Cc1cc(C)c(C#N)c(N2CCSCC2)n1	active: 59 nM
CCCn1cc(SCC(=O)NCc2ccco2)c2ccccc21	inconclusive: 1.8 nM
